Results are given in words; binding and its absence hold for the method and conditions named. Binding seen in cells or lysates may run through a third protein. Tags and fused reporters may be left off the sequences shown.
Biological target: GST-URM1 (ubiquitin-related modifier 1) (human)
Assay: pull-down; beads coated with GST-fusion proteins incubated 2 h at 4 °C with lysate of transfected HeLa cells (50 mM HEPES pH 7.4, 250 mM NaCl, 10 mM MgCl2, 1% Triton X-100); five washes; immunoblot with anti-GFP; only the target purified

B1: GFP-TBC1D9 (TBC1 domain family member 9) (protein, UniProt Q6ZT07 1-1266)
chain: MWVNPEEVLLANALWITERANPYFILQRRKGHAGDGGGGGGLAGLLVGTLDVVLDSSARVAPYRILYQTPDSLVYWTIACGGSRKEITEHWEWLEQNLLQTLSIFENENDITTFVRGKIQGIIAEYNKINDVKEDDDTEKFKEAIVKFHRLFGMPEEEKLVNYYSCSYWKGKVPRQGWMYLSINHLCFYSFLMGREAKLVIRWVDITQLEKNATLLLPDVIKVSTRSSEHFFSVFLNINETFKLMEQLANIAMRQLLDNEGFEQDRSLPKLKRKSPKKVSALKRDLDARAKSERYRALFRLPKDEKLDGHTDCTLWTPFNKMHILGQMFVSTNYICFTSKEENLCSLIIPLREVTIVEKADSSSVLPSPLSISTRNRMTFLFANLKDRDFLVQRISDFLQQTTSKIYSDKEFAGSYNSSDDEVYSRPSSLVSSSPQRSTSSDADGERQFNLNGNSVPTATQTLMTMYRRRSPEEFNPKLAKEFLKEQAWKIHFAEYGQGICMYRTEKTRELVLKGIPESMRGELWLLLSGAINEKATHPGYYEDLVEKSMGKYNLATEEIERDLHRSLPEHPAFQNEMGIAALRRVLTAYAFRNPNIGYCQAMNIVTSVLLLYAKEEEAFWLLVALCERMLPDYYNTRVVGALVDQGVFEELARDYVPQLYDCMQDLGVISTISLSWFLTLFLSVMPFESAVVVVDCFFYEGIKVIFQLALAVLDANVDKLLNCKDDGEAMTVLGRYLDSVTNKDSTLPPIPHLHSLLSDDVEPYPEVDIFRLIRTSYEKFGTIRADLIEQMRFKQRLKVIQTLEDTTKRNVVRTIVTETSFTIDELEELYALFKAEHLTSCYWGGSSNALDRHDPSLPYLEQYRIDFEQFKGMFALLFPWACGTHSDVLASRLFQLLDENGDSLINFREFVSGLSAACHGDLTEKLKLLYKMHVLPEPSSDQDEPDSAFEATQYFFEDITPECTHVVGLDSRSKQGADDGFVTVSLKPDKGKRANSQENRNYLRLWTPENKSKSKNAKDLPKLNQGQFIELCKTMYNMFSEDPNEQELYHATAAVTSLLLEIGEVGKLFVAQPAKEGGSGGSGPSCHQGIPGVLFPKKGPGQPYVVESVEPLPASLAPDSEEHSLGGQMEDIKLEDSSPRDNGACSSMLISDDDTKDDSSMSSYSVLSAGSHEEDKLHCEDIGEDTVLVRSGQGTAALPRSTSLDRDWAITFEQFLASLLTEPALVKYFDKPVCMMARITSAKNIRMMGKPLTSASDYEISAMSG
binding: no binding
